# Assay results taken from PubChem BioAssay AID720504 (National Center for Advancing Translational Sciences (NCATS), 2013).
# The chains behind the UniProt entries cited, without tags or fusion partners.
# UniProt P53350, whole entry, looked up: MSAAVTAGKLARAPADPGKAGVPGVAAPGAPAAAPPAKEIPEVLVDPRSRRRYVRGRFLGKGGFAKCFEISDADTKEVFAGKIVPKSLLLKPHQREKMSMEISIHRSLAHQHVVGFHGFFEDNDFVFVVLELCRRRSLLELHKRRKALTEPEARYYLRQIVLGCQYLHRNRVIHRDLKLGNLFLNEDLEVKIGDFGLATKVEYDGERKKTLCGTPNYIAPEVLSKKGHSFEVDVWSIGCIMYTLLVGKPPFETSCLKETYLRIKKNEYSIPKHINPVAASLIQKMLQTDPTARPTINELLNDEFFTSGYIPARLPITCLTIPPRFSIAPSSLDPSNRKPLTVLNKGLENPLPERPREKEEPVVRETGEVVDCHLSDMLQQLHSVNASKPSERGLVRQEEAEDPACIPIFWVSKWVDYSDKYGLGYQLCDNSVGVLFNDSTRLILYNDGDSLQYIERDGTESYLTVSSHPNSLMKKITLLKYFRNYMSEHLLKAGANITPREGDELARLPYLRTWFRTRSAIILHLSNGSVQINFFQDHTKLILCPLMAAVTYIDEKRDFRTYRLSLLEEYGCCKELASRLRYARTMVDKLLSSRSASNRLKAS
# About 10,000 (2.8%) of roughly 360,000 compounds were called active. This list was built around the results that the source calls inconclusive (neither active nor inactive); the mix of calls is not that of the screen. Calls come from the whole dose curve; as a rule, active = well fitted inhibition curve with a large enough effect; inconclusive = small, poorly fitted or top-dose-only effect; inactive = flat fitted curve, though single readings scatter. Where the call is inconclusive, the potency comes from a doubtful curve fit.
# Target: Serine/threonine-protein kinase PLK1 (Homo sapiens) (UniProt P53350)
# Assay: qHTS for Inhibitors of PLK1-PDB (polo-like kinase 1 - polo-box domain): Primary Screen; note: nearly all actives have a fitted effect of over 65% in size; for max response, negative = inhibition: series mostly up to about 57 µM
# Conditions: Plk1 PBD binding of FITC phosphopeptide, fluorescence polarization
# Excerpt: The polo-like kinase 1 (Plk1) is a member of a conserved subfamily of serine / threonine protein kinases that plays a pivotal roles in cell proliferation. It has a C-terminal non-catalytic region called the polo-box domain (PBD) that plays a crucial role in the subcellular localization of the Plk1. […] Furthermore, depletion of the overexpressed Plk1 by RNAi efficiently induces apoptotic cell death in cancer and reduces tumor growth in mouse xenograft models. Thus, targeting Plk1 is an appealing strategy for anti-cancer therapy. Therefore, this project aimed to screen the Molecular Libraries Small Molecule Repository (MLSMR) using a novel approach to find inhibitors that target the Plk1 PBD instead of the conventional N-terminal catalytic domain. This project employed a fluorescence polarization (FP) assay using a FITC-conjugated phospho-9-mer (p-9-mer) peptide and purified human Plk1 PBD protein. The identified small molecule inhibitors of Plk1 PBD can then further be developed into useful tools for biomedical and clinical research that complements or replaces current relevant disease therapy. NIH Chemical Genomics Center [NCGC] NIH Molecular Libraries Probe Centers Network [MLPCN] MLPCN Grant: MH100728 Assay Submitter (PI): Kyung Lee, NCI
# Four microliter of 25 nM FITC-p-9-mer + 60 nM Plk1 PBD in buffer solution (final concentrations 25 nM and 60 nM respectively) or 4 uL of 25 nM FITC-p-9-mer (final concentration 25 nM) in buffer will be dispensed into a 1,536 Greiner medium-binding black solid plate. Small molecules at final concentrations of 18 nM to 57 uM and positive control phospho-9-mer (sequence: Ac-PPLHSpTAI-NH2) at final concentrations 26 nM to 57 uM and phospho-13-mer (sequence: Ac-[…]pTAI-NH2) at final concentrations of 1 nM to 2.3 uM will be pin-transferred (23 nL) to the plate via a Kalypsys pin-tool robotics equipped with a 1,536-pin array. The reaction plate will be centrifuged for 1 min at 1000 rpm and incubated at room temperature for 10 min. The FITC fluorescence signals will be read using the PerkinElmer ViewLux plate reader at 480 / 20 nm excitation and 540 / 20 nm S and P polarization emission wavelengths. Reagent bottles will be kept submerged into 4 °C recirculating chiller bath and all liquid lines will be covered with aluminum foil to minimize degradation. Library plates will be screened starting from the lowest to the highest concentrations to minimize compound carryover. Vehicle only plates, with DMSO being pin-transferred instead of compound solutions, will be included regularly throughout the screen to record any systematic shifts in assay signal.
# % is set by controls: 0 for no effect and ±100 for the full control effect; potency is the fitted concentration of half-maximal effect.
SMILES,Potency,"max response, negative = inhibition"
COc1ccccc1/C=C/C(=O)c1cc(Br)ccc1OC(=O)c1ccco1,active: 23.8 µM,–
CCN(CC)c1ccc(N)cc1S(=O)(=O)Nc1ccc(OC)cc1,"inconclusive: 26.7 µM [inhibitor, single point]",–
O=C(Nc1ccc2c(c1)nc1n2CCN(C2CCCCC2)C1)c1ccco1,–,inconclusive: -30.8% [inhibitor]
Cc1c(Cl)cccc1Nc1ncccc1C(=O)O,"inconclusive: 26.7 µM [inhibitor, single point]",–
Cc1ccc2nc(CSc3nc(C)ccc3C#N)[nH]c2c1,"inconclusive: 31.6 µM [inhibitor, partial curve]",–
COc1ccc(Nc2cc(C)c3ccccc3n2)cc1,–,inactive: -7.79%
CC(O)CN1C(=O)C(CC(=O)Nc2ccc(Cl)cc2)SC1=Nc1ccccc1 (stereo not given),–,inconclusive: -33.3% [inhibitor]
CCc1ccc([C@@H]2CC=C(C(=O)O)[C@H](c3cccc(Cl)c3)N2S(=O)(=O)c2ccc(C)cc2)cc1,active: 21.2 µM,–
CCC(=O)NNC(=S)NC(=O)c1ccc(C)cc1,"inconclusive: 37.7 µM [inhibitor, single point]",–
COc1ccc(CN2CC(=O)N(c3cc(Cl)ccc3OC)C2=S)cc1OC,"inconclusive: 26.7 µM [inhibitor, partial curve]",–
Cc1ccc(NC(=O)c2cc3ccccc3cc2O)cc1,–,inactive: 2.86%
O=C(NC1CCCCC1)C1CCCN(S(=O)(=O)c2cnc[nH]2)C1 (stereo not given),–,inactive: -11.3%
CCC(=O)Nc1nnc(-c2ccc(OC)cc2)o1,–,inactive: -3.3%
Cc1c2ccccc2nc2c(F)c(NCCO)c(F)c(F)c12,active: 6.7 µM,–
CCOC(=O)N1CCN(C(=O)c2ccc3ccccc3c2)CC1,–,inactive: -4.75%
Cc1ccc(-n2nc(C)c(NC(=O)COC(=O)c3ccccc3NCCO)c2C)cc1,–,inactive: -3.82%
Cc1cc2c(SCC(=O)Nc3ccccc3O)ncnc2s1,active: 29.9 µM,–
O=C1C(Cl)=C(Oc2ccccc2)C(=O)c2ccccc21,active: 1.68 µM,–
COc1cccc(/C=N/n2c(C3CCCCC3)n[nH]c2=S)c1OC,"inconclusive: 37.7 µM [inhibitor, single point]",–
CC(CCc1ccccc1)NC(=O)COC(=O)c1ccc(S(C)(=O)=O)c([N+](=O)[O-])c1 (stereo not given),–,inconclusive: -33.2% [inhibitor]
Cn1c(N)c(C(=O)Nc2ccc3ccccc3c2)sc1=S,"inconclusive: 2.99 µM [inhibitor, full curve]",–
NS(=O)(=O)c1ccc(NC(=S)N2CCC(Cc3ccccc3)CC2)cc1,active: 13.4 µM,–
O=C(CCC(=O)c1cccs1)NNC(=O)c1ccccc1O,–,inactive: -21.8%
c1ccc(-c2csc3nnc(SCc4ccc5c(c4)OCO5)n23)cc1,active: 21.2 µM,–

# In the list so far, three have an aryl thioether with sulfur outside any ring:
SMILES,Potency,"max response, negative = inhibition"
Cc1ccc2nc(CSc3nc(C)ccc3C#N)[nH]c2c1,"inconclusive: 31.6 µM [inhibitor, partial curve]",–
Cc1cc2c(SCC(=O)Nc3ccccc3O)ncnc2s1,active: 29.9 µM,–
c1ccc(-c2csc3nnc(SCc4ccc5c(c4)OCO5)n23)cc1,active: 21.2 µM,–

# Reprinted at random: two compounds from above
SMILES,Potency,"max response, negative = inhibition"
c1ccc(-c2csc3nnc(SCc4ccc5c(c4)OCO5)n23)cc1,active: 21.2 µM,–
CCc1ccc([C@@H]2CC=C(C(=O)O)[C@H](c3cccc(Cl)c3)N2S(=O)(=O)c2ccc(C)cc2)cc1,active: 21.2 µM,–

# Remaining list, next part.

SMILES,Potency,"max response, negative = inhibition"
Cc1ccc(NC2c3ncccc3C(=O)N2c2ccccc2C)cc1C (stereo not given),active: 6.7 µM,–
O=c1cc(O)nc(-c2ccc(Cl)cc2)s1,"inconclusive: 23.8 µM [inhibitor, partial curve]",–
Cc1c(NC(=S)NC(=O)c2ccc(-c3ccc(Cl)cc3)o2)cccc1C(=O)O,"inconclusive: 26.7 µM [inhibitor, single point]",–
COc1ccc(C2c3sc(=O)[nH]c3SC3C4CCC(C4)C23)cc1OC (stereo not given),"inconclusive: 26.7 µM [inhibitor, partial curve]",–
C[C@H](NC(=O)c1ccccc1F)C(=O)N1CCC2(CC1)NCCc1[nH]cnc12,"inconclusive: 21.2 µM [inhibitor, single point]",–
O=C(c1ccccc1)C(CN1CCCCC1)c1ccccc1 (stereo not given),–,inconclusive: -30% [inhibitor]
Cc1cc(C)cc(NS(=O)(=O)c2ccc3[nH]cc(C(=O)N4CCc5ccccc54)c(=O)c3c2)c1,–,inactive: 2.28%
Cc1ccc(C(=O)Nc2sc(C)c(C)c2C(=O)c2ccccc2)cc1,active: 2.99 µM,–
NC(=O)c1ncc(C(F)(F)F)cc1Oc1ccc(C(F)(F)F)cc1,–,inactive: -8.54%
Cc1cc(C)cc(OCC(O)CN2C(=O)NC(C)(C)C2=O)c1 (stereo not given),"inconclusive: 26.7 µM [inhibitor, partial curve]",–
Fc1cccc(Cc2noc(CN3CCCN(C4Cc5ccccc5C4)CC3)n2)c1,–,inactive: 5.35%
COc1ccccc1-c1nn2c(C3COc4ccccc4O3)nnc2s1 (stereo not given),active: 11.9 µM,–
O=C(NCC1CCCO1)c1onc(CSc2cccc3ccccc23)c1C(=O)O (stereo not given),"inconclusive: 21.2 µM [inhibitor, partial curve]",–
CCc1nnc(NS(=O)(=O)c2ccc(NC(=O)c3ccc(Cl)cc3)cc2)s1,–,inconclusive: -32.8% [inhibitor]
CCOC(=O)CNC(=O)CSc1nnc(NC(=O)c2ccc(C)cc2)s1,–,inactive: -9.08%
Cc1cc(C)n2nc(CNS(=O)(=O)c3c(F)c(F)c(F)c(F)c3F)nc2n1,"inconclusive: 2.38 µM [inhibitor, partial curve]",–
C=CCn1c(=O)c2ccccc2n2c(SCC(=O)Nc3sc(C(=O)N(CC)CC)c(C)c3C(=O)OCC)nnc12,"inconclusive: 29.9 µM [inhibitor, partial curve]",–
Cc1ccccc1NC(=O)c1nc(S(C)(=O)=O)ncc1Cl,"inconclusive: 26.7 µM [inhibitor, partial curve]",–
COc1ccc(-c2cc(C(=O)Nc3c(C)nn(Cc4ccc(Cl)cc4)c3C)no2)cc1,–,inactive: -5.97%
O=C(O)c1cccc(Nc2nc3ccccc3nc2NS(=O)(=O)c2ccccc2)c1,"inconclusive: 47.4 µM [inhibitor, partial curve]",–
Cc1ccc(NC2SC(=O)N(Cc3cccc(C(=O)O)c3)C2=O)c(C)c1 (stereo not given),"inconclusive: 23.8 µM [inhibitor, single point]",–
CCN(CC)S(=O)(=O)c1ccc2oc(C(=O)NCc3ccc(C)cc3)c(C)c2c1,"inconclusive: 37.7 µM [inhibitor, single point]",–
COc1cccc(NS(=O)(=O)c2ccc3c(c2)C2C=CCC2C(c2ccc(C(=O)O)cc2)N3)c1 (stereo not given),"inconclusive: 29.9 µM [inhibitor, single point]",–
CCCOc1ccc(-c2c(=O)n(OCc3ccc([N+](=O)[O-])cc3)c3ccccc3[n+]2[O-])cc1,–,inconclusive: -32.6% [inhibitor]

SMILES,Potency,"max response, negative = inhibition"
CC1CCC(CN2C(Nc3ccccc3)=NC[C@@H]2C)CC1 (stereo not given in full),"inconclusive: 37.7 µM [inhibitor, single point]",–
O=C1OC(c2ccccc2)=C/C1=C/c1cccs1,–,inactive: 2.04%
COc1ccc(-c2nc(C)sc2CC(=O)O)cc1OC,"inconclusive: 26.7 µM [inhibitor, single point]",–
Cc1nc([N+](=O)[O-])c(Br)n1Cc1ccc(Cl)c(Cl)c1,"inconclusive: 23.8 µM [inhibitor, partial curve]",–
CN(C)c1ccc(-c2[nH][nH]c(=O)c2NC(=O)c2ccccn2)cc1,"inconclusive: 29.9 µM [inhibitor, partial curve]",–
CC(C)C[C@@H](CNCC(=O)[C@H](C)NC(=O)c1[nH]cnc1C(=O)N[C@@H](C)CN)NC(=O)c1nc[nH]c1C(=O)N[C@@H](Cc1ccccc1)C(=O)O,"inconclusive: 21.2 µM [inhibitor, partial curve]",–
Cc1ccccc1/C=N/Nc1ccnc2cc(Cl)ccc12,–,inactive: -1.02%
Cc1cc(Cl)nc2c(C(C)C)cccc12,active: 16.8 µM,–
Cc1ccc(S(=O)(=O)N2[C@@H](c3ccc(F)cc3)C(C(=O)O)=C[C@H]2CC2CCCC2)cc1,"inconclusive: 26.7 µM [inhibitor, partial curve]",–
N#Cc1cccc(S(=O)(=O)NCC(=O)NCCCc2ccccc2)c1,"inconclusive: 18.9 µM [inhibitor, partial curve]",–
CCC(=O)c1ccc(OCC(O)Cn2nc(C)c(C(C)=O)c2C)cc1 (stereo not given),"inconclusive: 13.4 µM [inhibitor, partial curve]",–
COc1cccc2cc(-c3nc4ccccc4o3)c(=O)oc12,"inconclusive: 23.8 µM [inhibitor, partial curve]",–
CCOC(=O)/C(=C\c1cccnc1)C(=O)c1cc(C(C)=O)c(Nc2ccccc2)s1,"inconclusive: 11.9 µM [inhibitor, partial curve]",–
COc1cc(/C=C/C(=O)O)ccc1OS(=O)(=O)c1c(C)c(C)cc(C)c1C,–,inconclusive: -31.8% [inhibitor]
O=C(O)CCN1C(=O)C(=C2CCCCCC2)SC1=S,"inconclusive: 33.6 µM [inhibitor, single point]",–
COCCN(C(=O)C1CCN(C(=O)c2ccccc2C)CC1)c1c(N)n(CC(C)C)c(=O)[nH]c1=O,"inconclusive: 37.7 µM [inhibitor, single point]",–
CC(=O)C1=C(O)C(=O)N(c2ccc(S(=O)(=O)Nc3nccs3)cc2)C1c1ccc([N+](=O)[O-])cc1 (stereo not given),–,inactive: -7.29%
CCN(CC)c1ccc(S(=O)(=O)N2CCOCC2)cc1NC(=O)Nc1ccccc1,"inconclusive: 33.6 µM [inhibitor, single point]",–
COc1ccc(C)cc1NC(=O)c1ccc2c(SCC(=O)O)c3c(nc2c1)CCCC3,–,inactive: -24.8%
c1csc(CCNc2ncnc3sc4c(c23)CCC4)c1,–,inactive: -11.8%
COc1ccc(C(NC(=O)/C=C/c2ccco2)c2ccc(OC)cc2)cc1,"inconclusive: 29.9 µM [inhibitor, partial curve]",–
O=c1oc2ccccc2cc1-c1nc2c(s1)CCc1ccccc1-2,active: 15 µM,–
